We go through 1 molecule from US20140030245A1.

These are yes or no findings as the source states them, for the method shown. In cells and extracts the contact can be indirect. Some binding calls cover weakened binding; strength is not graded here. Where a sequence is shown, tags or fusion partners need not be part of it.

The assay concerns the target T1, Myc-Chk1 N-terminus (N-terminal kinase domain of Chk1) (human) (UniProt O14757).
T1 sequence (looked up): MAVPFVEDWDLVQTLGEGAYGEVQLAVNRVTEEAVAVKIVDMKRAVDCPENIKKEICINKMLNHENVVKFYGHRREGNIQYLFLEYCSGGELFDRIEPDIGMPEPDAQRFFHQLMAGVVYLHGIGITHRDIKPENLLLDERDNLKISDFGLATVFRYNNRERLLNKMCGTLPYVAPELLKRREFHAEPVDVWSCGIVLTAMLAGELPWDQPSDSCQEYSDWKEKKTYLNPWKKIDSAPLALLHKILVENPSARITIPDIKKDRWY
The experiment in a line: co-immunoprecipitation from HEK293T cells: anti-Myc IP of Myc-Chk1 N-terminus, anti-GFP immunoblot. (In western blotting, separated proteins are transferred to a membrane and probed.)

B1: GFP-tagged Chk1 C-terminal fragment C5 (protein, human, UniProt O14757 331-476, looked up, not shown: large carriers)
chain: SPSYIDKLVQGISFSQPTCPDHMLLNSQLLGTPGSSQNPWQRLVKRMTRFFTKLDADKSYQCLKETCEKLGYQWKKSCMNQVTISTTDRRNNKLIFKVNLLEMDDKILVDFRLSKGDGLEFKRHFLKIKGKLIDIVSSQKIWLPAT
As to B1, the binding result is given as “binds”.
